From PMC7492264
No constants are given. Whether binding was seen depends on the method and setting. In cells and extracts the contact can be indirect. Some results given as binding are weak or reduced against the parent protein; the word gives no strength. Where a sequence is shown, tags or fusion partners need not be part of it.

Protein sequences, listed by entry. Tags and fused reporters are not part of them. Lines headed by an entry give the natural chain unless they say otherwise; changes in a name come on top. Chains listed by the source or under a name are the forms on record and can include a tag or linker. Residues count along the entry.
RNF43(WT), human ring finger protein 43, HA-tagged (Q68DV7, residues 24-783): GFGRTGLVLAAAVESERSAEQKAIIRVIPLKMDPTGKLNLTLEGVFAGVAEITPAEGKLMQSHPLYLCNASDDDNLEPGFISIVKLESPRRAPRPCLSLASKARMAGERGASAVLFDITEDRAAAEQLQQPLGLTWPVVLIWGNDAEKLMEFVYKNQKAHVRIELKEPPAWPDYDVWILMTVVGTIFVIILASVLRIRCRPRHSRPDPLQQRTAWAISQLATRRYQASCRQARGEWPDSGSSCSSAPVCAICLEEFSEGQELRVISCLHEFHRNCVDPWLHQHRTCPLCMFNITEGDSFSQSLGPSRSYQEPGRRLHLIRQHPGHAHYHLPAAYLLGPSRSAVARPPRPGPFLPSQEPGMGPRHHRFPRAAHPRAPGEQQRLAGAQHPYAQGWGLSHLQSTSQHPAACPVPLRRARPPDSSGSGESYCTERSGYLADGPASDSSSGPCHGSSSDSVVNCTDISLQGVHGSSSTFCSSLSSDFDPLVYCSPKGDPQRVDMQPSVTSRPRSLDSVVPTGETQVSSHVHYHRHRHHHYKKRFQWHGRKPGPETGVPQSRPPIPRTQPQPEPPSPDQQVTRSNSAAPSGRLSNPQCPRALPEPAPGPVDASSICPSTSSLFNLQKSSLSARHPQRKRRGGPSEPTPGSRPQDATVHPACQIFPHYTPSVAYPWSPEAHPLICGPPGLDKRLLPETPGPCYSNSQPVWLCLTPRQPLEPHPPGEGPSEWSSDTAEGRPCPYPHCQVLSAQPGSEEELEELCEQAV
RNF43(3SA), human RNF43 S474–476A phosphoresistant mutant, HA-tagged (Q68DV7-1, form named): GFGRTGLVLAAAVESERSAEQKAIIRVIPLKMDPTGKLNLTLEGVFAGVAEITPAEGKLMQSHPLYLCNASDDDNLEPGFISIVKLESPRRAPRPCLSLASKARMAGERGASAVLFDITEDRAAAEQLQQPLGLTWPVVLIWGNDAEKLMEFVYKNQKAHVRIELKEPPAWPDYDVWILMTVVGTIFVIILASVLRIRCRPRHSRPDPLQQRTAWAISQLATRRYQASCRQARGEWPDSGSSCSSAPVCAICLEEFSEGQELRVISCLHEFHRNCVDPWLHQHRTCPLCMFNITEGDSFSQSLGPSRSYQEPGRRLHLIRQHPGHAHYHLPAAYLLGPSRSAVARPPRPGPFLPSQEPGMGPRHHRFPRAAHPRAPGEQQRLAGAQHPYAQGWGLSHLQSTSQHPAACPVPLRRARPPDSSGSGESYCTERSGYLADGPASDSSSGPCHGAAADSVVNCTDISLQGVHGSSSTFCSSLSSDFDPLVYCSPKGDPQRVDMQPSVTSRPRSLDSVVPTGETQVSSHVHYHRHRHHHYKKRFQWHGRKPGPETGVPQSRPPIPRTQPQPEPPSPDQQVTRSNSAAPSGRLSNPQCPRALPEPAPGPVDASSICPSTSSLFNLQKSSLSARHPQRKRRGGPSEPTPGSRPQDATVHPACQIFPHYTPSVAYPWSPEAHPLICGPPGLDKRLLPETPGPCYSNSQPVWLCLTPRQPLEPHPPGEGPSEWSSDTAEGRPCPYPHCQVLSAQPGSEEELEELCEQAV
RNF43(3SD), human RNF43 S474–476D phosphomimetic mutant, HA-tagged (Q68DV7-1, form named): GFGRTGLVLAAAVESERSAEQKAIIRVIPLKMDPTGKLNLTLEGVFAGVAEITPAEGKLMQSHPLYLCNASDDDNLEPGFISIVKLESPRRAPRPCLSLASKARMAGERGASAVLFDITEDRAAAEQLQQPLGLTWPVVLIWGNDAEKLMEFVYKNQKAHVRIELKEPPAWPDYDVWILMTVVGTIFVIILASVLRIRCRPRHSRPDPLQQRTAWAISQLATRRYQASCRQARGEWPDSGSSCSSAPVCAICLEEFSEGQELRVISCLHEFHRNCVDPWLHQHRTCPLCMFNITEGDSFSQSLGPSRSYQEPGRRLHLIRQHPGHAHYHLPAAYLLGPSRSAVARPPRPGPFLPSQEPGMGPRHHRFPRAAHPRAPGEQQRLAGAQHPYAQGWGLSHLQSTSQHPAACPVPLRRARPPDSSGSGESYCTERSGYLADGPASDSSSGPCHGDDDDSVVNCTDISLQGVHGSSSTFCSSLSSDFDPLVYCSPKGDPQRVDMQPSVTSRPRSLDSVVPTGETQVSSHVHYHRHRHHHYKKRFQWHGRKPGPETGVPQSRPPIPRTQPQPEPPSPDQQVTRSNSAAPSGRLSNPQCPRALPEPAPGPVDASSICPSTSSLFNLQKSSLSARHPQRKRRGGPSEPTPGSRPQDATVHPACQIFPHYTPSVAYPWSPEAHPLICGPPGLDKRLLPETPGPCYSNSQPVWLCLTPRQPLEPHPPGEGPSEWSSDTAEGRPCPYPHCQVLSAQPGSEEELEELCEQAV
UniProt P61077: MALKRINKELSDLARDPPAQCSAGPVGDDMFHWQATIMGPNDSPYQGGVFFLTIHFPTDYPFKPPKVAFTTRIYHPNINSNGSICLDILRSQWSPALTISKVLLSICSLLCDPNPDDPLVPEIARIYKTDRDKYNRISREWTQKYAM
UniProt Q9EQD0, residues 27-585: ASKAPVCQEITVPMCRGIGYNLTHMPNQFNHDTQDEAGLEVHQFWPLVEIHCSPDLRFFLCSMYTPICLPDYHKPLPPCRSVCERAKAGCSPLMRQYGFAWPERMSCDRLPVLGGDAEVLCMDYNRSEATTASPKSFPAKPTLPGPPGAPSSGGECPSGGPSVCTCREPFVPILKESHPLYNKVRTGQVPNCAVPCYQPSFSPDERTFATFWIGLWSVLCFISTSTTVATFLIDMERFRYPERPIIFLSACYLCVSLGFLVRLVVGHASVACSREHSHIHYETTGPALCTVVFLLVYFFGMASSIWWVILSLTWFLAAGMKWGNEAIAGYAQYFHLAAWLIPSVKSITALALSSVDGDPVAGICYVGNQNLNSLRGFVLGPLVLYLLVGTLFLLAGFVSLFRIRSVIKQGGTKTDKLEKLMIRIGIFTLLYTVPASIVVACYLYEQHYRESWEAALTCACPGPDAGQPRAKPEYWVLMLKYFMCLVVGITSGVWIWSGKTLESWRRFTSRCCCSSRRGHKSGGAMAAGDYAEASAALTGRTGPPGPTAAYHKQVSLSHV
UniProt Q9ULT6, residues 56-936: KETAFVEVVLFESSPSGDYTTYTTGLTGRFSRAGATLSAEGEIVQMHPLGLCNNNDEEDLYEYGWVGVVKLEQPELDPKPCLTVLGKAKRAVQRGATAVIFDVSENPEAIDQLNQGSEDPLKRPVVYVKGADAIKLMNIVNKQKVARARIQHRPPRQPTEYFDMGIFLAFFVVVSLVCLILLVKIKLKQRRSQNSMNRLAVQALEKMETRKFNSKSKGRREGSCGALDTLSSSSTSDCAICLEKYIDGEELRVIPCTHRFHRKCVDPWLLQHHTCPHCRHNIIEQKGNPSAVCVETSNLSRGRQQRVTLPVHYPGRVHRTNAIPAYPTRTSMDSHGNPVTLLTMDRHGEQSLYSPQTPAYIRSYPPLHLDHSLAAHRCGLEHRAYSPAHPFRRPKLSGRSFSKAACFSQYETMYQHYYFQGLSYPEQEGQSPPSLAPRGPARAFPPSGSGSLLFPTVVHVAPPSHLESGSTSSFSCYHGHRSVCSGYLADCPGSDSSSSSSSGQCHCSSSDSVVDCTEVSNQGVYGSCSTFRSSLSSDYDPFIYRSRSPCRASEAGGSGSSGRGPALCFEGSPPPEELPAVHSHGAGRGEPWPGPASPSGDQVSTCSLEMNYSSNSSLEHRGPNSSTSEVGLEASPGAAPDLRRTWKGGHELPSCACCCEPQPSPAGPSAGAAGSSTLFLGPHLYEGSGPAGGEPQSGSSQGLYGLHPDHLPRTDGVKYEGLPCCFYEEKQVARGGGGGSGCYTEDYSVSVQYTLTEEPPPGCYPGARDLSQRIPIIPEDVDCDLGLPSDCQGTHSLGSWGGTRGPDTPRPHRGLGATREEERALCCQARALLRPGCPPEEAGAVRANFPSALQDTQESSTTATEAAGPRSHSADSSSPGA

B1: myc-mDvl2, mouse Dishevelled 2 (protein, UniProt Q60838 1-736)
chain: MAGSSAGGGGVGETKVIYHLDEEETPYLVKIPVPAERITLGDFKSVLQRPAGAKYFFKSMDQDFGVVKEEISDDNARLPCFNGRVVSWLVSSDTPQPEVAPPAHESRTELVPPPPPLPPLPPERTSGIGDSRPPSFHPNVSSSHENLEPETETESVVSLRRDRPRRRDSSEHGAGGHRPGGPSRLERHLAGYESSSTLMTSELESTSLGDSDEDDTMSRFSSSTEQSSASRLLKRHRRRRKQRPPRMERTSSFSSVTDSTMSLNIITVTLNMEKYNFLGISIVGQSNERGDGGIYIGSIMKGGAVAADGRIEPGDMLLQVNDMNFENMSNDDAVRVLRDIVHKPGPIVLTVAKCWDPSPQAYFTLPRNEPIQPIDPAAWVSHSAALTGAFPAYPGSSSMSTITSGSSLPDGCEGRGLSVHMDMASVTKAMAAPESGLEVRDRMWLKITIPNAFLGSDVVDWLYHHVEGFPERREARKYASGLLKAGLIRHTVNKITFSEQCYYVFGDLSGGCESYLVNLSLNDNDGSSGASDQDTLAPLPGATPWPLLPTFSYQYPAPHPYSPQPPPYHELSSYTYGGGSASSQHSEGSRSSGSTRSDGGAGRTGRPEERAPESKSGSGSESELSSRGGSLRRGGEPGGTGDGGPPPSRGSTGAPPNLRALPGLHPYGAPSGMALPYNPMMVVMMPPPPPPVSTAVQPPGAPPVRDLGSVPPELTASRQSFHMAMGNPSEFFVDVM

What was measured:
Assay in all cases: co-IP; cells expressing the constructs lysed in IP lysis buffer (50 mM Tris-HCl pH 7.6, 150 mM NaCl, 0.7% Triton X-100, phosphatase and protease inhibitors); lysates incubated with the indicated antibodies and protein A-Sepharose, or anti-FLAG-M2 affinity gel or anti-HA agarose beads, 8–12 h; beads washed 5 times; immunoblot
[1] = molecular target: RNF43(3SA), human RNF43 S474–476A phosphoresistant mutant, HA-tagged (human) (UniProt Q68DV7)
[2] = molecular target: RNF43(3SD), human RNF43 S474–476D phosphomimetic mutant, HA-tagged (human) (UniProt Q68DV7)
[3] = molecular target: RNF43(WT), human ring finger protein 43, HA-tagged (human) (UniProt Q68DV7)

Row | binding [1] | binding [2] | binding [3] | Molecule
1 | binds | binds | binds | E2 enzyme UbcH5C (from UniProt P61077 1-147)
2 | binds | binds | binds | FLAG-mFzd5, mouse Frizzled 5 (from UniProt Q9EQD0 27-585) (receptor)
3 | binds | – | – | RNF43(3SA), human RNF43 S474–476A phosphoresistant mutant, HA-tagged (from UniProt Q68DV7-1 24-783) (enzyme)
4 | – | binds | – | RNF43(3SD), human RNF43 S474–476D phosphomimetic mutant, HA-tagged (from UniProt Q68DV7-1 24-783) (enzyme)
5 | – | – | binds | RNF43(WT), human ring finger protein 43, HA-tagged (from UniProt Q68DV7-1 24-783) (enzyme)
6 | binds | binds | binds | ZNRF3, zinc and ring finger protein 3 (from UniProt Q9ULT6-1 56-936) (enzyme)
7 | binds | binds | binds | B1
